Earlier results on one compound are cited in US20040138296A1, “Amyloid immunization and Cox-2 inhibitors for the treatment of alzheimer's disease” (Pharmacia Corporation, priority 2002, published 2004).

The test system of this data set is AD patients.

On to `COc1cc2c(cc1OC)C(=O)C(CC1CCN(Cc3ccccc3)CC1)C2` (stereo not shown) [Donepezil], for which the hepatotoxicity result was “almost no hepatotoxicity”.
